Experimental data reported in the supplement of paper PMC7666118.
The list shows a part of the results.

Chains of the proteins cited; added tags and fusions are not shown. Lines headed by an entry give the natural chain unless they say otherwise; changes in a name come on top.
UniProt Q9H871: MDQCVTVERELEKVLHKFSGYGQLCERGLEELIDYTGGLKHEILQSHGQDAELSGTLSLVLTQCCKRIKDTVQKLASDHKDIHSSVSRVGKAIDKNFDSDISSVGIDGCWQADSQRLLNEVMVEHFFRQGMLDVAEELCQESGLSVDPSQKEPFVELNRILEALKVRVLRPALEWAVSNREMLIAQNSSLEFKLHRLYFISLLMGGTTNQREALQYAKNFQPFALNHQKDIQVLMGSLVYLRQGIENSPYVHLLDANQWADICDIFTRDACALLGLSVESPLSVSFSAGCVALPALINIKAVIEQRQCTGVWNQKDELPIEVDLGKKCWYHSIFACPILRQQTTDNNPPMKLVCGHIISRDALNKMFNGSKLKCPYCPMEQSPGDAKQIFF
UniProt Q8N5U6: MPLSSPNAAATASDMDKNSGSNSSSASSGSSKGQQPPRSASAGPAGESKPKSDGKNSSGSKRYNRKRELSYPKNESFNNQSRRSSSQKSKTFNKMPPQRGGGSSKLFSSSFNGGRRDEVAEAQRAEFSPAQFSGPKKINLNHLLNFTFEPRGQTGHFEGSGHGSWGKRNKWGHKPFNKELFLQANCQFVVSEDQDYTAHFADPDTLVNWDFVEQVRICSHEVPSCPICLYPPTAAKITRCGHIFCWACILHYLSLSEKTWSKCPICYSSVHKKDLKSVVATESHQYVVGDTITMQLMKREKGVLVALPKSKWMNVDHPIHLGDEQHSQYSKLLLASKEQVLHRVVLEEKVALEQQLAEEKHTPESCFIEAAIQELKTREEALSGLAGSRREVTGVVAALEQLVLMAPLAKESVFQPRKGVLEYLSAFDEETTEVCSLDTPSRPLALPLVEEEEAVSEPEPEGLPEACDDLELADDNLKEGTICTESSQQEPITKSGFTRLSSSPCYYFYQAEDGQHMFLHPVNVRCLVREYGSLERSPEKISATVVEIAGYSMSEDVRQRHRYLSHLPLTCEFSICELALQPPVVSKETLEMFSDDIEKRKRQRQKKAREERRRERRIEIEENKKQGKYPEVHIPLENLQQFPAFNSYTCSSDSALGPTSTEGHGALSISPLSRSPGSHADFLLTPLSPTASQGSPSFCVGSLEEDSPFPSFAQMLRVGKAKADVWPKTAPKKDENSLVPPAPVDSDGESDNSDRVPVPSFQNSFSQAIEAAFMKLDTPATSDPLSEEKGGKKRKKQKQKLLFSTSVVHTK
UniProt Q5PRF9: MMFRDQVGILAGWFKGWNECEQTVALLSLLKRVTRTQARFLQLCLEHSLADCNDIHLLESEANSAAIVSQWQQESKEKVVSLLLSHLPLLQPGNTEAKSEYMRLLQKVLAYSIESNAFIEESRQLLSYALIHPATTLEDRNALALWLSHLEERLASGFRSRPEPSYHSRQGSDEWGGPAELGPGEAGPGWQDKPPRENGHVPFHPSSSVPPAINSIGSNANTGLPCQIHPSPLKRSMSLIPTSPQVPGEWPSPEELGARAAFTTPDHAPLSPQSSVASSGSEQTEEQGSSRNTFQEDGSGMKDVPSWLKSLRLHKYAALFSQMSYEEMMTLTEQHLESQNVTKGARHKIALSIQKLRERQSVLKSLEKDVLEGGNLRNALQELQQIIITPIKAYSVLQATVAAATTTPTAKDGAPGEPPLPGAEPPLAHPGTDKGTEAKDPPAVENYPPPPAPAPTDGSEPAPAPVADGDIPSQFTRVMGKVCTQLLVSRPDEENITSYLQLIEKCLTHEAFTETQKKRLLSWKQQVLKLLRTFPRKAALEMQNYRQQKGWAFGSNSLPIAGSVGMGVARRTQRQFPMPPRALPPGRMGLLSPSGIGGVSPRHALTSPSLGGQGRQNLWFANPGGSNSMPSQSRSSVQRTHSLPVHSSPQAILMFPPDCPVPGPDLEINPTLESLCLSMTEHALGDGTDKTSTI
UniProt P27694, whole entry: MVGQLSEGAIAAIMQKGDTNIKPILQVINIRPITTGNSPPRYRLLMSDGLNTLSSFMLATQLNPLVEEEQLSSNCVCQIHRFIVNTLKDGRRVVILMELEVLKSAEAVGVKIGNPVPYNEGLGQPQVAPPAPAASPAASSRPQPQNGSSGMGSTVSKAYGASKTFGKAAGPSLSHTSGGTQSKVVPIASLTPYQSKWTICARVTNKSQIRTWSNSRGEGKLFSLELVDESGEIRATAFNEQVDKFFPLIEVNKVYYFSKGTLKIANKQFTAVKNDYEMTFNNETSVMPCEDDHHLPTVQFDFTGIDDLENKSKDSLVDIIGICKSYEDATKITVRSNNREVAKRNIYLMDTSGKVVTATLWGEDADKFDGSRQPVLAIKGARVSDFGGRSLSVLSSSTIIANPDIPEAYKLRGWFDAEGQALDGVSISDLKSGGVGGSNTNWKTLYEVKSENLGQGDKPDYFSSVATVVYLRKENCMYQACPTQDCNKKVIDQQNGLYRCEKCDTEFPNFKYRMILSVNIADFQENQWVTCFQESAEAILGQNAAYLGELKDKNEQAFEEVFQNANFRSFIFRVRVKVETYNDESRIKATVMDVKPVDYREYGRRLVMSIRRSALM
UniProt Q5VTB9: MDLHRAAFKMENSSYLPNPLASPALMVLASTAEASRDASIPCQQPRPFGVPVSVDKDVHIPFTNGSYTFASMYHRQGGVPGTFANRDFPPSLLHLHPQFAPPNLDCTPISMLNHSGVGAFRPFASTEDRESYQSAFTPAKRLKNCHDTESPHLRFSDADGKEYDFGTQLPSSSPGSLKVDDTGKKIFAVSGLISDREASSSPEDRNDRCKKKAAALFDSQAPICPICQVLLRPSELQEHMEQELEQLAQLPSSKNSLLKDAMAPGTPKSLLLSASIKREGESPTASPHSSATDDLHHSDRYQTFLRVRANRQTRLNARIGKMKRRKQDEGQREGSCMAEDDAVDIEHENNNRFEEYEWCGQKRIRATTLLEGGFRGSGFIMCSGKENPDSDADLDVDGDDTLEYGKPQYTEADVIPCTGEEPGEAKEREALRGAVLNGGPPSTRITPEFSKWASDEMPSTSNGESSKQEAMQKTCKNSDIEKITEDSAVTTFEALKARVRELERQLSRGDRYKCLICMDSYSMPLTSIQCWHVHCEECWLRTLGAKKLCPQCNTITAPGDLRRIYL
UniProt O75446: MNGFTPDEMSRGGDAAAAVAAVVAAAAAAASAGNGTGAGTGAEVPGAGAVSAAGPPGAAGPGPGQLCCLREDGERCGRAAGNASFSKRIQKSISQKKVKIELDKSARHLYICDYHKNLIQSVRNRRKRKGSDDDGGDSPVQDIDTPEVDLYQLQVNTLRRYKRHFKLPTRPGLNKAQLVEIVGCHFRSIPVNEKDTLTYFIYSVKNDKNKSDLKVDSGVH
UniProt Q9NSI8: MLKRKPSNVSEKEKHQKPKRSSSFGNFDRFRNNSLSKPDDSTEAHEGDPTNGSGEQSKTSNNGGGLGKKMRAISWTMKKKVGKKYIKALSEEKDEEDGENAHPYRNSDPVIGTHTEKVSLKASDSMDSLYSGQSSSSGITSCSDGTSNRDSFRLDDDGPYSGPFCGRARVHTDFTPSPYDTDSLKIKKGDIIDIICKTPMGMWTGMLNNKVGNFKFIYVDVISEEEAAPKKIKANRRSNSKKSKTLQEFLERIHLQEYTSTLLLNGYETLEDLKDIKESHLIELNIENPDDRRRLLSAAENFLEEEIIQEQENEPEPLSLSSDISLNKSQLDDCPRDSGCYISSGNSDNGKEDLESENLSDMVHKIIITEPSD
UniProt Q9BVS4: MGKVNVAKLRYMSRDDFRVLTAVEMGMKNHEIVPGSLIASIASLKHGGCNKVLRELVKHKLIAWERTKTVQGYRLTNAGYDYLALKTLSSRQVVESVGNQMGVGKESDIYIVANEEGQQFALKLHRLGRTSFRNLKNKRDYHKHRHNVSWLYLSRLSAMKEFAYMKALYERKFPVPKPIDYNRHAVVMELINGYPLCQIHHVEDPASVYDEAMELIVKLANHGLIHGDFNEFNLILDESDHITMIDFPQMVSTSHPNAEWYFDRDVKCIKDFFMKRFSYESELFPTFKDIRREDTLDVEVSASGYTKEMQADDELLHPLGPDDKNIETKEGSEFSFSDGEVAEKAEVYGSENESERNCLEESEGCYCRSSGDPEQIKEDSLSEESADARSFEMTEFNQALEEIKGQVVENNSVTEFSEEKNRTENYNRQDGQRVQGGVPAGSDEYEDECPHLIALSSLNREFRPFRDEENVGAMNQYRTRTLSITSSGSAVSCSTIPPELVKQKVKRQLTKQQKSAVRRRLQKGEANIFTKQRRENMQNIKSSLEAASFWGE
UniProt P06702: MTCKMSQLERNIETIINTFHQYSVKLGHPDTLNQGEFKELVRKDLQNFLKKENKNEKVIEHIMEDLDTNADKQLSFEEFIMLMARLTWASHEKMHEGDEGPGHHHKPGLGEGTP
UniProt Q8WU17: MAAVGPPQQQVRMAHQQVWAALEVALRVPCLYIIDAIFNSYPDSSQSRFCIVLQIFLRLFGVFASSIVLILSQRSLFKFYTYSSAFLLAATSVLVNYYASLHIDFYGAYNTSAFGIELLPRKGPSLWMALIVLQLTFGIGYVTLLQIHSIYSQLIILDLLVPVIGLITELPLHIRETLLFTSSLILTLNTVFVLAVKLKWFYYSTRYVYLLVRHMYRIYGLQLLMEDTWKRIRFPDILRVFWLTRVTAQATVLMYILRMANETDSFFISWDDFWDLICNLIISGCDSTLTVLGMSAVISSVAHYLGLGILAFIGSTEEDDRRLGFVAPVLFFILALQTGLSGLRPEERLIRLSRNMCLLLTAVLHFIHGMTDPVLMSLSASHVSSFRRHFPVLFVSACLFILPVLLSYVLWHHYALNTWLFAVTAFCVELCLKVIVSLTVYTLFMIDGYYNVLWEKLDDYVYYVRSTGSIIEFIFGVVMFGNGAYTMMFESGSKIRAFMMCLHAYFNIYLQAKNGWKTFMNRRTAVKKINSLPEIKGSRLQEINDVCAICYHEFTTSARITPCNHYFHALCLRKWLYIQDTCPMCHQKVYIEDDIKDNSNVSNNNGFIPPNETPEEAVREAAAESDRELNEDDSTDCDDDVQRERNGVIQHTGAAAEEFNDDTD
UniProt O00442: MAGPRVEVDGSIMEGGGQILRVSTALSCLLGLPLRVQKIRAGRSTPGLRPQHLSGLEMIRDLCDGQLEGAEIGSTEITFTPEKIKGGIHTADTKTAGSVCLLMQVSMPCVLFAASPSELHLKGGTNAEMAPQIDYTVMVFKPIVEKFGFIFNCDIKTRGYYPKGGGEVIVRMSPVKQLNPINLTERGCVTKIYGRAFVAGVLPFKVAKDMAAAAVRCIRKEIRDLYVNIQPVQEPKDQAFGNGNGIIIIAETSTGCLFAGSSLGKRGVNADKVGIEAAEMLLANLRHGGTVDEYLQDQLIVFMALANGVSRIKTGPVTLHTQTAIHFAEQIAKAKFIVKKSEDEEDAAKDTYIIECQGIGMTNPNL
UniProt P19793: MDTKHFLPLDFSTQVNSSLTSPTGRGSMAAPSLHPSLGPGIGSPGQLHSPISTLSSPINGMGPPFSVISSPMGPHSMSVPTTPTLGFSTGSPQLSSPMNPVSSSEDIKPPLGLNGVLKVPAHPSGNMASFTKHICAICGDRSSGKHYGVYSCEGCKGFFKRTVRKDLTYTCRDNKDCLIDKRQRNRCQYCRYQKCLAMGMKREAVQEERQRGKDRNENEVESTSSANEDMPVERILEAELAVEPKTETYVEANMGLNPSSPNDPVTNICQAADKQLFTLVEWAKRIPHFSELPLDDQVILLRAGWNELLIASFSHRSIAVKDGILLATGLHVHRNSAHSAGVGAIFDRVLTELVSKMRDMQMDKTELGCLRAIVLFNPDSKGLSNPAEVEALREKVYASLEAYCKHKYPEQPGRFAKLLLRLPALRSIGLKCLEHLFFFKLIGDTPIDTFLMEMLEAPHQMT
UniProt Q9UBF6, whole entry: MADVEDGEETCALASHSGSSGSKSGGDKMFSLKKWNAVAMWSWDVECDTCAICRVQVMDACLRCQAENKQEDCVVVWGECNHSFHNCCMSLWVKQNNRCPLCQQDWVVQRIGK
UniProt Q9UKL0, whole entry: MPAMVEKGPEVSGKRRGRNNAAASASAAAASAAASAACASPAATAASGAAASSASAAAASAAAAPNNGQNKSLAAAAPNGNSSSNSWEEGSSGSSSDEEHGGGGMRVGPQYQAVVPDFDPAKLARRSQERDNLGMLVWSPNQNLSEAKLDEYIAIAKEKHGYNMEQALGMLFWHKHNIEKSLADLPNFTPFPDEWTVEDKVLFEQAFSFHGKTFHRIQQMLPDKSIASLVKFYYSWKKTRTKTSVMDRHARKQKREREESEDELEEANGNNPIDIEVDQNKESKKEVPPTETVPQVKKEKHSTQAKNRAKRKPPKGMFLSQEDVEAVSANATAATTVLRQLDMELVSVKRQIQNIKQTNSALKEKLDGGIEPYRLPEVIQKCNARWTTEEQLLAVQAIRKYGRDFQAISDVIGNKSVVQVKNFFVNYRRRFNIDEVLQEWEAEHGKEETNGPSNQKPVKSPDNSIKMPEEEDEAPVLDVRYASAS

The targets below were run with COc1ccc(Cn2ccc3ccc(C(=O)NO)cc32)cc1 (assay: dose-dependent thermal stabilisation call (2D-TPP, DLPTP, 10% FDR) (binary (1 = stabilised)); higher = stabilised by the compound). Settings: system: HL-60 intact cells; concentration range 0.04-10 µM.
For RGS14 (UniProt O43566), the “dose-dependent thermal stabilisation call” value was inactive: 0.
In the case of RMND5A (UniProt Q9H871), the “dose-dependent thermal stabilisation call” value is reported as inactive: 0.
With RSL1D1 (UniProt O76021) the “dose-dependent thermal stabilisation call” value was inactive: 0.
For RNF10 (UniProt Q8N5U6), the “dose-dependent thermal stabilisation call” value was inactive: 0.
In the case of RPS24 (UniProt P62847), the “dose-dependent thermal stabilisation call” value is reported as inactive: 0.
With SAMD4B (UniProt Q5PRF9) the “dose-dependent thermal stabilisation call” value was inactive: 0.
For RPA1 (UniProt P27694), the “dose-dependent thermal stabilisation call” value was inactive: 0.
RNF220 (UniProt Q5VTB9) was tested, and the “dose-dependent thermal stabilisation call” value was inactive: 0.
For SACS (UniProt Q9NZJ4), the “dose-dependent thermal stabilisation call” value was inactive: 0.
SAP30 (UniProt O75446) was tested, and the “dose-dependent thermal stabilisation call” value was inactive: 0.
With RPS3 (UniProt P23396) the “dose-dependent thermal stabilisation call” value was inactive: 0.
RPL29 (UniProt P47914) was tested, and the “dose-dependent thermal stabilisation call” value was inactive: 0.
In the case of SAMSN1 (UniProt Q9NSI8), the “dose-dependent thermal stabilisation call” value is reported as inactive: 0.
In the case of RPL19 (UniProt P84098), the “dose-dependent thermal stabilisation call” value is reported as inactive: 0.
With RIOK2 (UniProt Q9BVS4) the “dose-dependent thermal stabilisation call” value was inactive: 0.
For S100A9 (UniProt P06702), the “dose-dependent thermal stabilisation call” value was inactive: 0.
With RPS8 (UniProt P62241) the “dose-dependent thermal stabilisation call” value was inactive: 0.
RSBN1L (UniProt Q6PCB5) was tested, and the “dose-dependent thermal stabilisation call” value was inactive: 0.
With RNF139 (UniProt Q8WU17) the “dose-dependent thermal stabilisation call” value was inactive: 0.
In the case of RTCD1 (UniProt O00442), the “dose-dependent thermal stabilisation call” value is reported as active: 1.
With RXRA (UniProt P19793) the “dose-dependent thermal stabilisation call” value was inactive: 0.
In the case of RFX1 (UniProt P22670), the “dose-dependent thermal stabilisation call” value is reported as inactive: 0.
With RPL13 (UniProt P26373) the “dose-dependent thermal stabilisation call” value was inactive: 0.
For RNF7 (UniProt Q9UBF6), the “dose-dependent thermal stabilisation call” value was inactive: 0.
With RCOR1 (UniProt Q9UKL0) the “dose-dependent thermal stabilisation call” value was inactive: 0.
RG9MTD1 (UniProt Q7L0Y3) was tested, and the “dose-dependent thermal stabilisation call” value was inactive: 0.
With RPS19 (UniProt P39019) the “dose-dependent thermal stabilisation call” value was inactive: 0.
